Library screen at single concentrations

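Whole-parasite assay of Trypanosoma brucei over 72 hours; the read-out is not stated. Compounds at 30 µM. Higher reads as stronger inhibition (inferred: compounds with an IC50 in retests scored well above the rest). Values scatter widely below zero; nearly all retest evidence comes from the higher of the two concentrations used. Of about 64,000 compounds tested this way, about 940 (1.5%) reached 50% or more in at least one test.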

Each number is a percent effect as filed. How 0% and 100% were set is not recorded. Most values in the screen are low, and negative values occur. This is an unselected part of the compounds tested.

SMILES	Percent Effect
[H][C@@]12CN(Cc3ccncc3)CC[C@]1([H])CN(c1cncnc1)C2	0.4697%
COc1cccc(CCC2CCCN(C(=O)C3=NN(C)C(=O)CC3)C2)c1 (configuration not stated)	-10.49%
[H][C@]12CC[C@]([H])(CN(C(=O)Nc3ccccc3C(F)(F)F)C1)N(C)C2=O	-70.63%
CC(=O)Nc1ncc(S(=O)(=O)Nc2ccccc2F)s1	-2.315%
[H][C@@]12C[C@H](C(=O)N(C)C)[C@@]([H])(CN(S(=O)(=O)CC(C)C)C1)O2	-47.41%
Cc1cc(Cl)ccc1C(=O)N1C[C@H](C2CC2)[C@@H](N)C1	-27.82%
Cc1ccc(CNC(c2ccc(F)cc2)c2nccn2C)o1 (configuration not stated)	2.969%
COc1ccc2c(C)c(C(=O)N3CCC(NC(C)=O)C3)oc2c1 (configuration not stated)	-13.01%
C[C@H](NC(=O)C1(N(C)Cc2ccccc2)Cc2ccccc2C1)C(N)=O	-79.43%
Cn1cccc(NC(=O)COc2ccc(Cl)cc2)c1=O	-34.26%
CC(CCc1ccco1)NC(=O)Nc1cc(C(F)(F)F)c[nH]c1=O (configuration not stated)	29.93%
Cc1csc(N2CCCN(C(=O)Cn3cncn3)CC2)n1	-12.79%
CCOC(=O)c1sc2ccsc2c1CNC(=O)C(C)(C)C#N	48.57%
COc1c(C2CCCN2c2ncnc3c2cnn3C)c(C)nn1C (configuration not stated)	-9.543%
CC(C)N1CCOC[C@H]1c1nc(-c2ccncc2)c[nH]1	12.27%
CC(=O)N1CCCN(C(=O)c2oc(Br)cc2C)CC1	2.726%
CN1Cc2nnc(C3CCOCC3)n2C(Cc2c[nH]cn2)C1 (configuration not stated)	-17.85%
COc1ncnc(N)c1CNCCc1ccccc1	-30.74%
CCCc1n[nH]c(C2CN(C(=O)c3cc(C4CC4)on3)CCO2)n1 (configuration not stated)	10.35%
CCCNC(=O)CCNc1cncc(-n2nc(C)cc2C)n1	4.915%
Cc1ccc(CN(C)C(=O)CN2CCCC2Cn2cncn2)cc1 (configuration not stated)	-28.69%
Cn1cc(C2NC3(CCCC3)C(=O)N2CC2CC2)c(=O)n(C)c1=O (configuration not stated)	5.135%
Cc1cccc(C(C(=O)NCCCc2nnc3ccccn23)N(C)C)c1 (configuration not stated)	-9.58%
[H][C@@]12CS(=O)(=O)C[C@]1([H])N(Cc1ccc(C#N)cc1)CCN2C(=O)C1CCC1	-27.59%
Cc1cc(NCc2ccc(C#N)cc2)n2nc(C)cc2n1	-4.277%
[H][C@@]12CCN(C3CCCC3)C[C@]1(C(=O)N1CCOCC1)CCO2	3.577%
[H][C@@]12CC[C@H](Oc3ccc(Cl)cc3)[C@]1([H])CN(C(=O)Cn1ccnc1)C2	19.25%
O=C(c1cc(-c2ccccc2)nc2onc(C3CC3)c12)N1CC[C@H](O)C1	-62.25%
O=C1NCC(C(=O)N(Cc2ccc(C(F)(F)F)cc2)C2CC2)N1 (configuration not stated)	-19.5%
Nc1nc(C2CCN(C(=O)c3cncs3)CC2)cs1	19.76%
Cc1ccccc1C(=O)NCCC(=O)NS(=O)(=O)c1cccnc1	-28.27%
CCCc1n[nH]c(C2CN(CCC(F)(F)F)CCO2)n1 (configuration not stated)	-6.974%
CN(C(=O)c1cccc2[nH]ncc12)C1CCN(c2ccccn2)CC1	-41.78%
Cc1cccc(N2CCN(CCC(=O)NCc3nnc[nH]3)CC2)c1	-15.94%
CC(NC(=O)Cn1ccnc1)c1ccc(OCC2CC2)c(F)c1 (configuration not stated)	15.35%
N#CCC1CC(c2ccc(F)cc2)=NO1 (configuration not stated)	-36.64%
O=C(NCc1cnc2n1CCN(CC1CC1)C2)C1CC1.O=C(O)C(F)(F)F	-47.95%
COc1ccc(F)c(CN2CC(=O)N(c3ccccc3C)CC2C)c1 (configuration not stated)	6.481%
CC(=O)Nc1ccc(Cl)c(C(=O)N(C)C(C)c2ccncn2)c1 (configuration not stated)	8.458%
CC(C)NC(=O)CNC(C)c1c(F)cccc1Cl (configuration not stated)	-9.415%
COc1ccccc1CCN(C)C(=O)NC(C)c1nncn1C (configuration not stated)	-3.031%
Cc1cc(C)n2nc(C(=O)N3CCCC4(CNC(=O)O4)C3)cc2n1 (configuration not stated)	-29.24%
[H][C@@]12C[C@@H](OCc3ccccn3)CN1CCN(C(=O)c1ccsc1)C2	-142.7%
Cc1ccsc1[C@@H]1CCN(C(=O)CCCn2cncn2)C[C@H]1O	-17.59%
COc1ccc(NC(=O)Cc2c(C)nc3c(c2C)c(=O)[nH]n3C)cn1	13.17%
c1cc(-c2nnn3c2COC(CNCc2nccs2)C3)ccn1 (configuration not stated)	-1.856%
Cc1cc(C(=O)NCc2cccnc2OC(C)C)no1	-29.99%
O=C(CN1C(=O)CC2(CCCC2)C1=O)NCCc1nccs1	-3.261%
[H][C@@]12CCN(c3ncccn3)[C@@]1([H])CCN2C(=O)NC1CC1	11.21%
CCOC(=O)C1CN(S(=O)(=O)C2CC2)Cc2ncn(CC)c21 (configuration not stated)	-56.97%
Cn1nc2c(cc1=O)CN(Cc1nnc(-c3ccco3)o1)CC2	-16.47%
Cn1cc(-c2nc(CN3CCOC(Cn4cncn4)C3)cs2)cn1 (configuration not stated)	-10.67%
CC(C)CCN1C(=O)CC(N(C)Cc2nc3ccccc3c(=O)[nH]2)C1=O (configuration not stated)	-9.505%
CCN1CCN(C)C(=O)C12CCN(Cc1cccc(C)c1)CC2.O=C(O)C(F)(F)F	-19.48%
Cc1ccc(CC(=O)N2Cc3nccn3CC(Cn3cccn3)C2)cc1 (configuration not stated)	16.33%
O=C(NC1CC1)c1nc2c(s1)CCCN2c1ccccc1	-101.1%
CCOc1ncccc1C(=O)Nc1c(C)cnn1CC1CC1	-43.64%
O=C(NCCCO)Nc1cccc(Cl)c1F	6.517%
COCC(=O)N1C[C@@H](c2cccc(OC)c2)[C@@]2(CCCCC(=O)N2)C1	-13.23%
Cc1nc(S(=O)(=O)N2CCSCC2)cn1C	10.72%
CCOc1ccc(CNC(=O)N(C)CC(C)(C)O)cc1C	-21.17%
Cc1ccc(CC(=O)N2CCCC2Cn2nc(C)cc2C)cn1 (configuration not stated)	-18.68%
O=C(C1CCCOC1)N(CC(F)F)c1cccc(Cl)c1 (configuration not stated)	-27.54%
O=C(NCCN1CCCCC1)c1ccn(-c2ccccc2)n1	-31.54%
CCc1ccc(C(=O)N2CCN(CC(C)O)CC2)o1 (configuration not stated)	11.39%
Cc1cc(C)cc(C(=O)N2CCCN(CC(N)=O)CC2)c1	-20.59%
Cc1ccc(C(=O)NC2CCCN(c3ncccn3)C2)cn1 (configuration not stated)	5.78%
O=C(NCC1CC1)C1CN(Cc2cccs2)Cc2ccnn2C1 (configuration not stated)	-10.54%
O=C(O)C(F)(F)F.[H][C@@]12CCN(Cc3cccc(C)n3)[C@@]1([H])CCN2C(=O)c1cc(C)on1	-33.57%
CC(=O)c1cccc(OCC(=O)NS(=O)(=O)c2ccc(C)s2)c1	9.516%
Cc1cccc(CN2CCc3ncnc(C)c3CC2)n1.O=C(O)C(F)(F)F	-41.89%
COc1ccc(CN2CCc3ncnc(C4CCOC4)c3CC2)cc1.O=C(O)C(F)(F)F (configuration not stated)	23.16%
CSc1ccc(CN(CCO)C(=O)CCNC(C)=O)cc1	-33.38%
COCc1ccc(C(=O)N2CCCN(c3ccc(F)cc3)CC2)s1	-14.96%
CC(C)(C)NC(=O)N1CCC(Oc2ccc(C(F)(F)F)cn2)CC1	5.865%
O=C(O)C(F)(F)F.O=C(O)C(F)(F)F.[H][C@@]12OCCN(Cc3csc(C)n3)[C@@]1([H])CC[C@@H]2OCc1cccnc1	7.117%
Clc1ccccc1-c1cc(CNc2ncnc3c2CCNCC3)no1	-18.38%
CN(Cc1ccncc1)C(=O)NC1CCS(=O)(=O)C1 (configuration not stated)	-2.46%
O=C(O)C(c1ccc2c(c1)OCCO2)N1CCC(N2CCSCC2)CC1 (configuration not stated)	-29.57%
CN(Cc1n[nH]c(=O)n1Cc1cccs1)S(C)(=O)=O	-24.15%
O=C(O)C(F)(F)F.[H][C@@]12CCN(C(=O)Cc3cccs3)C[C@]1([H])[C@@H](CN(C)C)OC2	-8.696%
O=C(O)C(F)(F)F.O=C(O)C(F)(F)F.O=C(c1ccncc1F)N1Cc2nc(CN3CCCCC3)oc2C1	-30.79%
CS(=O)(=O)NCCNC(=O)c1ccc(OCc2ccccc2)nc1	-25.26%

Source: ChEMBL document CHEMBL3988442, “University of Dundee, Small-Polar-MMV Screening Library” (2021).